{"source": "patent US11624068B2", "about": "“Compositions and methods for improving immune system function” (Tufts Medical Center, Inc., priority 2016, dated 2023)", "assay_type_in_all_cases": "cell-based, human", "key": {"YY1 promoter": {"tested_on": "YY1 promoter", "assay": "YY1 promoter luciferase reporter assay in restimulated T cells", "conditions": "after four stimulations, continued presence of inhibitor; FIG. 5C upper", "protocol": "Human YY1 promoter luciferase construct YY1-pGLuc-basic was a kind gift from Dr. Guangchao Sui of Wake Forest Health Sciences, NC (Huang et al., 2012 Nucleic Acids Res 40, 1033-1049). The cJun/ATF2 octameric palindrome cyclic AMP-response element (CRE), 5′-[…]-3′(SEQ ID NO: 40), was mutated to 5′-cGgCaTaA-3′ (SEQ ID NO: 41) using the service of GenScript Inc. (Item cat. 426354-1).\nThe reporter assays and plasmid overexpression were performed in 6 well tissue culture plates. 5×10^6 T cells were transfected with plasmids using Amaxa human T cell nucleofector Kit, cat. VPA-1002 (Lonza). Transfections were performed using Amaxa nucleofector II device, program no. T-023/T-020. Luciferase assays were generally performed 48 hours after transfections. […] The YY1 promoter luciferase assay was measured from T cell culture supernatants using BioLux Gaussia lucferase assay kit (New England Biolabs, cat. no. E3300S). Amounts of transfected plasmids were kept proportionally constant. Samples were assayed for reporter activity using a Gloma 20/20 Luminometer (Promega), essentially using the recommended parameters provided by the reagent suppliers.\nIn experiments using p38MAPK, JNK, MEK1 and Ezh2 inhibitors, cells were grown in the continued presence of inhibitors. After each wash and activation step, cells were treated with a fresh batch of inhibitors. […]"}, "YY1": {"tested_on": "YY1", "assay": "Western blot of YY1 protein in T cells grown with kinase inhibitors", "conditions": "same cells as reporter assay; FIG. 5C lower", "protocol": "(§1) In experiments using p38MAPK, JNK, MEK1 and Ezh2 inhibitors, cells were grown in the continued presence of inhibitors. After each wash and activation step, cells were treated with a fresh batch of inhibitors. The following inhibitors were used: MAPKp38-SB202190 (10 μmol/ml) (Sigma, cat. S7067), JNK-SP600125 (10 μmol/ml) (Sigma, cat. S5567), MEK1-PD98059 (5 μmol/ml) (Calbiochem, cat. 513001), MEK1/2-inhibitor III (5 μmol/ml) (Calbiochem, cat. 444966) and Ezh2-[…] (10 nmol) (Millipore, cat. 505052). DMSO was used as a mock treatment. The specificity of p38MAPK, JNK and MEK1 inhibitors to block the downstream kinases, phospho-ATF2, phospho-cJun and phospho-ERK, respectively, was confirmed by westerns (FIG. 18A).\n(§2) For denaturing westerns, 20-40 μg of protein extracted from T cells was used. RIPA lysis buffer (Sigma, cat. R0278) was used to prepare whole cell extracts. For native gel analysis, cells were lysed in native lysis buffer (50 mM Tris-Cl, pH 8.0; 1% NP40; 150 mM NaCl, 100 μg leupeptin, 1 mM PMSF, 5 mM orthovanadate). For both native and denaturating conditions, samples were resolved on 4-15% TGX precast gels (Bio-Rad, cat. 456-1084) with the difference in running buffer. Native samples were run without SDS. […]"}, "[1]": {"tested_on": "phospho-ATF2, phospho-cJun and phospho-ERK", "assay": "Kinase activities by western blot (inhibitor specificity)", "conditions": "respectively, westerns, FIG. 18A", "protocol": "as §1, §2"}}, "note": "At least one compound was matched to its structure with a doubt left.", "data": [{"smiles": "Oc1c2ccccc2c2c3c(cccc13)N=N2", "note": "[JNK inhibitor, SP600125]", "values": [{"measurement": "YY1 luciferase reporter transcriptional activity", "setting": "YY1 promoter", "value": "suppressed"}, {"measurement": "YY1 protein by Western blot", "setting": "YY1", "value": "suppressed"}, {"measurement": "specificity to block the downstream kinases", "setting": "[1]", "value": "confirmed"}]}]}
